Experimental data taken from PubChem BioAssay AID493014 (National Center for Advancing Translational Sciences (NCATS), 2011).
Values joined by “and” are separate entries in the source; they are usually repeats but may differ in a detail not shown here. Equal entries are not always repeated. The list shows a part of the results. These are further read-outs of the screen, such as a control signal, another cell line or another target. No call is given for them. Compounds called inactive in the main read-out are mostly missing here. Words in brackets tell the shape of the fitted curve; partial curves, single points and poor fits give uncertain potencies.

Experiment: qHTS Assay to Find Inhibitors of Chronic Active B-Cell Receptor Signaling
Conditions: ABC-DLBCL IkBa-CBG/CBR reporter, luminescence ratio (green luciferase fused to IkBa over red control in TMD8 lymphoma cells), 4 h
Method in brief: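 Concentration-response series (up to 46 uM) were applied to TMD8 dual-reporter cells for 4 h at 37C with doxycycline. Green/red ratio, after filter-overlap correction, defined %Activity; red signal alone was normalised to basal cells and zero luminescence.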

[1] = measured here: CBR red luminescence, cell number
[2] = measured here: IkBa-CBG green luminescence

| Structure (SMILES) | AC50 [1] | AC50 [2] |
| --- | --- | --- |
| COc1ccc(/C=N/Nc2nc3ccccc3[nH]2)cc1OC | 29.1 µM [falling, single point] | – |
| O=C1NC(=Nc2ccccc2)SC1Cc1cccc(Cl)c1Cl (stereo not given) | 9.2 µM [falling, partial curve, poor fit] | – |
| C/C(=N\NC(=O)c1cccc(O)c1)c1cccc(NC(=O)c2ccc(F)cc2)c1 | 1.78 µM [falling, partial curve, poor fit] | – |
| Cc1cc(Cl)ccc1NC(=S)NCCC(c1ccccc1)c1ccccc1 | 29.1 µM [falling, single point] | – |
| O=C(c1ccc(N2C(=O)c3ccccc3C2=O)cc1)N1CCCCC1 | 12.6 µM [rising, single point] | – |
| CCN(CC)S(=O)(=O)c1ccc(Cl)c(NC(=O)COC(=O)c2cc(-c3ccccc3Cl)nc3ccccc23)c1 | 20.6 µM [rising, partial curve, poor fit] | – |
| O=C(COc1ccc2ccccc2c1Br)Nc1ccncc1 | 1.58 µM [rising, full curve] | – |
| NS(=O)(=O)c1ccc(NC(=S)NC(=O)c2ccc(-c3ccccc3)cc2)cc1 | 29.1 µM [rising, partial curve, poor fit] | – |
| O=[N+]([O-])c1c(C(Cl)Cl)nn(-c2ccccc2)c1N1CCCC1 | 31.6 µM [rising, single point] | – |
| O=C(Oc1cc(=O)oc2ccccc12)c1ccccc1 | 3.98 µM [falling, partial curve] | – |
| COc1cccc(NC(=O)CN(C)C(=O)c2sc3cc(Cl)ccc3c2Cl)c1 | 29.1 µM [falling, single point] | – |
| Cc1ccc(C(=O)Cc2nc3ccccc3[nH]2)cc1 | 35.5 µM [falling, single point] | – |
| Fc1ccccc1Cn1nnc2c(NCc3ccccn3)ncnc21 | 10.3 µM [falling, partial curve] | – |
| CCOC(=O)c1cc2sccc2n1Cc1ccc(C#N)cc1 | 6.51 µM [rising, full curve, poor fit] | 18.4 µM [falling, single point] |
| Cc1ccc(CNC(=O)c2ccc(CSCc3ccccc3C)o2)cc1 | 22.4 µM [rising, partial curve, poor fit] | – |
| c1ccc2c(c1)oc1c(NCCN3CCOCC3)ncnc12 | 0.562 µM [falling, partial curve, poor fit] | – |
| CCCCNC(=S)NNC(=O)CCn1cc(C)cn1 | – | 25.9 µM [falling, single point] |
| CC(c1nnc(SCC(=O)Nc2sccc2C#N)n1-c1ccc(Cl)cc1)N(C)C (stereo not given) | 4.11 µM [rising, full curve, poor fit] | – |
| N#Cc1ccc(CN2CCN(C(=O)CCNS(=O)(=O)c3ccc(F)c(Cl)c3)CC2)cc1 | 4.61 µM [falling, partial curve, poor fit] | – |
| Fc1ccc(-c2n[nH]c(=S)n2Cc2ccccc2)cc1 | 35.5 µM [falling, partial curve, poor fit] | – |
| CC1(C)Cc2c(sc3c2c(=N)n(Cc2ccco2)c(=O)n3Cc2ccc(F)cc2)CO1 | 11.2 µM [falling, partial curve, poor fit] | – |

| Structure (SMILES) | AC50 [1] | AC50 [2] |
| --- | --- | --- |
| CCC(=O)Nc1ccc(NC(=O)c2ccccc2Cl)nc1 | 5.17 µM [falling, partial curve] | – |
| CCOc1ccc(CCNC(=O)COC(=O)C2CCN(S(=O)(=O)c3ccc(C)c(C)c3)CC2)cc1OCC | 0.0891 µM [rising, full curve, poor fit] | – |
| Cc1ccnc(Nc2nc(-c3ccc(O)cc3)cs2)c1 | 12.6 µM [falling, single point] | – |
| O=C(Nc1nc2ccccc2[nH]1)c1ccc(OC(F)F)cc1 | 5.01 µM [falling, full curve] | – |
| O=C(O)c1nc(-c2ccccc2)n(-c2cccc(C(F)(F)F)c2)n1 | – | 12.6 µM [rising, partial curve, poor fit] |
| FC(F)(F)c1nc(SCc2ccc(Cl)cc2Cl)n[nH]1 | 35.5 µM [falling, single point] | – |
| CC1Cc2cc(/C(O)=C3/C(=O)C(=O)N(Cc4cccnc4)C3c3cccc(O)c3)ccc2O1 (stereo not given) | 3.16 µM [rising, single point] | – |
| O=C(O)COc1ccc(/C=C/c2ccc3cccc([N+](=O)[O-])c3n2)cc1 | 23.1 µM [falling, partial curve] | – |
| CCOc1ccccc1N1CCN(C(=O)CNC(=O)c2ccccc2F)CC1 | 14.1 µM [falling, single point] | – |
| O=S(=O)(NC1CC1)c1ccc(S(=O)(=O)N(Cc2ccccn2)C2CC2)cc1 | 3.55 µM [rising, single point] | – |
| Cc1ccc(OCC(=O)Nc2ccc(F)cc2)cc1C | 16.4 µM [falling, partial curve, poor fit] | – |
| O=Cc1ccccc1OCCOc1ccccc1C=O | 0.146 µM [rising, partial curve, poor fit] | 16.4 µM [falling, partial curve] |
| Cc1c(/C(O)=C2/C(=O)C(=O)N(Cc3cccnc3)C2c2ccccn2)cnn1-c1ccccc1 (stereo not given) | 11.2 µM [rising, partial curve, poor fit] | – |
| Cc1cc(C(=O)NNC(=O)c2ccc(C)c([N+](=O)[O-])c2)c(C)o1 | 4.11 µM [falling, full curve] | – |
| Cc1cc(C)c2c(N)c(C(=O)c3ccc(Cl)c(Cl)c3)sc2n1 | 0.251 µM [falling, full curve, poor fit] | – |
| O=C(COC(=O)c1ccc(Br)o1)NCCc1ccccc1 | 25.1 µM [rising, single point] | – |
| O=C1[C@@H]2Cc3c([nH]c4ccccc34)C(c3ccc([N+](=O)[O-])cc3)N2C(=O)CN1C1CC1 (stereo not given in full) | 17.8 µM [falling, single point] | – |
| CN(C)N1C(N)=C(C#N)C(c2ccccc2F)C2=C1CC(C)(C)CC2=O (stereo not given) | 3.55 µM [falling, single point] | – |
| O=C(Nc1ccc(S(=O)(=O)Nc2nccs2)cc1)c1cc(-c2ccccc2Cl)nc2ccccc12 | 10 µM [falling, partial curve] | – |
| COc1ccc(NC(=O)c2ccc(CN3CCN(c4ccccc4)CC3)cc2)cc1OC | 23.1 µM [falling, partial curve, poor fit] | – |
| COC(=O)N1C(=O)[C@](c2ccccc2)(C2CCCC2)N1C(=O)OC | 35.5 µM [falling, single point] | – |

| Structure (SMILES) | AC50 [1] | AC50 [2] |
| --- | --- | --- |
| COc1ccc(/C=C/C(=O)Nc2ccccc2C(=O)O)cc1OC | 1.41 µM [falling, full curve] and 891 nM [falling, full curve] | – |
| Cc1ccc(SCc2[nH]nc3c2C(C(C)C)C(C#N)=C(N)O3)cc1 (stereo not given) | 10 µM [falling, partial curve, poor fit] | – |
| COc1cc(-c2cc(C(=O)Nc3cc(S(=O)(=O)N4CCOCC4)ccc3O)c3ccccc3n2)cc(OC)c1OC | 0.731 µM [rising, full curve, poor fit] | – |
| Cc1nn(CC(C)C)c2sc(C(=O)NC3CC(C)(C)NC(C)(C)C3)cc12 | 10 µM [rising, partial curve, poor fit] | – |
| COc1cc(/C=C2\SC(N)=NC2=O)cc(OC)c1 | 8.91 µM [falling, partial curve, poor fit] | – |
| COc1cccc(OC)c1C(=O)NNC(=O)c1cccc(COc2ccc3c(c2)CCC3)c1 | 1.12 µM [rising, partial curve] | – |
| O=C(CN1CCOCC1)Nc1ccc(Br)cn1 | 0.58 µM [falling, partial curve, poor fit] | – |
| O=C(Nc1ccc(N2CCN(C(=O)c3ccco3)CC2)c(Cl)c1)c1c(F)c(F)c(F)c(F)c1F | 20.6 µM [falling, single point] | – |
| CCCc1cc(-c2ccc(O)c(OCC)c2)c(C#N)c(N)n1 | 0.164 µM [falling, partial curve, poor fit] | – |
| Cc1ccccc1C(=O)NC1CCN(CC(=O)Nc2nccs2)CC1 | 20.6 µM [falling, single point] | – |
| Cc1c(C(=O)NCc2ccco2)sc2nc(-c3ccccc3)cn12 | 3.66 µM [rising, partial curve] | – |
| Cc1ccccc1CNC(=O)CN(c1cccc(C)c1C)S(C)(=O)=O | 2.51 µM [rising, partial curve] | – |
| COCc1cc(C)nc(OCC(=O)N/N=C/c2ccc(OC)c(O)c2)c1C#N | 18.4 µM [rising, partial curve] | – |
| Cc1cc(C)nc(SCCC(=O)N2CCOCC2)n1 | 29.1 µM [rising, single point] | – |
| O=C(CSc1ccc(-c2ccccn2)nn1)c1ccc(F)cc1 | 6.31 µM [rising, single point] | – |
| COCCOC(=O)C1=C(C)NC(=O)CC1c1cc2c(cc1Br)OCO2 (stereo not given) | – | 25.9 µM [falling, single point] |
| C/C(=N\NC(=O)C1(C)CC1(Br)Br)c1cccc(NC(=O)C(C)(C)C)c1 (stereo not given) | 29.1 µM [rising, single point] | – |
| COc1cccc2c(=S)c(CCC(C)=O)c(C)[nH]c12 | 29.1 µM [falling, partial curve, poor fit] | – |
| O=C(NC1CC1)C1CC(=O)N(c2cccc(Cl)c2)C1 (stereo not given) | 5.01 µM [falling, full curve] | – |
| COC(=O)c1ccc(NC(=O)c2ccccc2NS(C)(=O)=O)cc1 | 9.2 µM [falling, partial curve, poor fit] | – |
| COc1ccc(N2CCN(C(=O)Cn3c(=O)[nH]c4ccccc4c3=O)CC2)cc1 | 0.0794 µM [falling, full curve, poor fit] | – |

Some values from above:
For AC50 [1], CC(c1nnc(SCC(=O)Nc2sccc2C#N)n1-c1ccc(Cl)cc1)N(C)C (stereo not given) shows 4.11 µM [rising, full curve, poor fit]
For AC50 [1], COc1ccc(NC(=O)c2ccc(CN3CCN(c4ccccc4)CC3)cc2)cc1OC shows 23.1 µM [falling, partial curve, poor fit]
For AC50 [1], CCOc1ccccc1N1CCN(C(=O)CNC(=O)c2ccccc2F)CC1 shows 14.1 µM [falling, single point]
